Results reported in article PMC7862700.
This is one part of the list. Construct or isoform of the protein are uncertain.

These sequences were tested against T1, ETS1 (UniProt P14921) (assay: DAPPL (digital affinity profiling via proximity ligation, sequencing)). Conditions: 10 mM Tris-HCl pH 7.5, 50 mM NaCl, 1 mM DTT, 4% glycerol, room temperature, 30 min; GST-TFs on glutathione beads, 16-mer random dsDNA library, 0.1% …; high values mean tight binding; double strand, one strand shown; scale: fold enrichment (6-mer frequency, TF over GST control).
T1 sequence: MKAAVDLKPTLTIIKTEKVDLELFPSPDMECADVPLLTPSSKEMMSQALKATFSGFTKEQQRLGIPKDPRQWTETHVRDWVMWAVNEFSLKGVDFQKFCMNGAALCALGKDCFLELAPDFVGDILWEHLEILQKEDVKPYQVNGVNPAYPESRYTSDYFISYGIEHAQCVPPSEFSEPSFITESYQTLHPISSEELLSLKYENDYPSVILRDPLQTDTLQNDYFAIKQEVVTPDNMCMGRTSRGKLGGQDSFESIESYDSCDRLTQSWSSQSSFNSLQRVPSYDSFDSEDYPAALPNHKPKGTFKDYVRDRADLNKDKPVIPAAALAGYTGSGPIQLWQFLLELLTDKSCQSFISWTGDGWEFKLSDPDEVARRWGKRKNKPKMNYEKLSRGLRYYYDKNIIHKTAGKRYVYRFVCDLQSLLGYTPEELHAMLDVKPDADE

Sequence | binding signal
ACACTT | 1.66
GTCCCT | 1.21
AAAACA | 1.34
TACTCG | 1.14
CAGGAT | 1.24
TTTGAG | 1
TTCTCC | 1.64
TTGCCT | 1.24
TAGCGG | 1.04
CATCTG | 1.25
GGAAGC | 1.58
GTTACG | 1.05
CACTGG | 1.16
TTGTAC | 1.47
TACCTC | 1.24
TTGCTA | 1.26
GCTTTA | 1.1
CAATCC | 1.22
TTGTCT | 1.15
ACCGGA | 2.88

Taken from above:
For binding signal, CACTGG is entered as 1.16
For binding signal, GTCCCT is entered as 1.21

Later entries:

Sequence | binding signal
AGATCC | 1.08
TTGAAT | 1.15
CACGCC | 1.23
ATGGAT | 1.08
CCGTAA | 1.12
ATAGCT | 1.14
CCGTAC | 1.33
TTATAG | 1.24
CGTCTA | 1.27
AACATA | 1.29
ACTAAA | 1.29
TACCGA | 1.11
TTTACT | 1.47
GCGATG | 1.16
ACATAC | 1.22
CTTGTT | 1.23
CTCGTG | 1.03
TTAGAA | 1.18
CCATGC | 0.976
